Source: article PMC11515493
These are yes or no findings as the source states them, for the method shown. Binding seen in cells or lysates may run through a third protein. Binding calls can cover weak binding; strength is not graded here.

The chains behind the UniProt entries cited, without tags or fusion partners. Where a name states a change or a piece, a line headed by the entry shows the natural chain unless it says otherwise.
UniProt P10636: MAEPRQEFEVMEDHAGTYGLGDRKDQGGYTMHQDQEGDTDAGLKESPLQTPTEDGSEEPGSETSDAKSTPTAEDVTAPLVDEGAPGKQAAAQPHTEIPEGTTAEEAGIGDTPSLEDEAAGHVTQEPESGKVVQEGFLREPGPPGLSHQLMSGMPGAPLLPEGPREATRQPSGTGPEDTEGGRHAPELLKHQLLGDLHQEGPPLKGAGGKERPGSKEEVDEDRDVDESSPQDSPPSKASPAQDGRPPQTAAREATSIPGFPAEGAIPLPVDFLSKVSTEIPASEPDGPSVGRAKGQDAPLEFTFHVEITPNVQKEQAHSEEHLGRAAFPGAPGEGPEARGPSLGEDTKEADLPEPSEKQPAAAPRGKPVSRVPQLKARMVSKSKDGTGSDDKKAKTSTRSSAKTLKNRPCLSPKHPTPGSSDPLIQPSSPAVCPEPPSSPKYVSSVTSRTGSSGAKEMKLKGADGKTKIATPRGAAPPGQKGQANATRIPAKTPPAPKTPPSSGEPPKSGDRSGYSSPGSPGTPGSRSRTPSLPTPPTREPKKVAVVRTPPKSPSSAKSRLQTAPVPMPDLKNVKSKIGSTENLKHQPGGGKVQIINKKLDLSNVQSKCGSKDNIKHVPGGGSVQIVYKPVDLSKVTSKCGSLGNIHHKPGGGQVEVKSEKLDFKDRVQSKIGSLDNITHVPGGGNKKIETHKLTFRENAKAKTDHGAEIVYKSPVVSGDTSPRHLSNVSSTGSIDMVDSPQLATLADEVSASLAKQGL
UniProt P70398: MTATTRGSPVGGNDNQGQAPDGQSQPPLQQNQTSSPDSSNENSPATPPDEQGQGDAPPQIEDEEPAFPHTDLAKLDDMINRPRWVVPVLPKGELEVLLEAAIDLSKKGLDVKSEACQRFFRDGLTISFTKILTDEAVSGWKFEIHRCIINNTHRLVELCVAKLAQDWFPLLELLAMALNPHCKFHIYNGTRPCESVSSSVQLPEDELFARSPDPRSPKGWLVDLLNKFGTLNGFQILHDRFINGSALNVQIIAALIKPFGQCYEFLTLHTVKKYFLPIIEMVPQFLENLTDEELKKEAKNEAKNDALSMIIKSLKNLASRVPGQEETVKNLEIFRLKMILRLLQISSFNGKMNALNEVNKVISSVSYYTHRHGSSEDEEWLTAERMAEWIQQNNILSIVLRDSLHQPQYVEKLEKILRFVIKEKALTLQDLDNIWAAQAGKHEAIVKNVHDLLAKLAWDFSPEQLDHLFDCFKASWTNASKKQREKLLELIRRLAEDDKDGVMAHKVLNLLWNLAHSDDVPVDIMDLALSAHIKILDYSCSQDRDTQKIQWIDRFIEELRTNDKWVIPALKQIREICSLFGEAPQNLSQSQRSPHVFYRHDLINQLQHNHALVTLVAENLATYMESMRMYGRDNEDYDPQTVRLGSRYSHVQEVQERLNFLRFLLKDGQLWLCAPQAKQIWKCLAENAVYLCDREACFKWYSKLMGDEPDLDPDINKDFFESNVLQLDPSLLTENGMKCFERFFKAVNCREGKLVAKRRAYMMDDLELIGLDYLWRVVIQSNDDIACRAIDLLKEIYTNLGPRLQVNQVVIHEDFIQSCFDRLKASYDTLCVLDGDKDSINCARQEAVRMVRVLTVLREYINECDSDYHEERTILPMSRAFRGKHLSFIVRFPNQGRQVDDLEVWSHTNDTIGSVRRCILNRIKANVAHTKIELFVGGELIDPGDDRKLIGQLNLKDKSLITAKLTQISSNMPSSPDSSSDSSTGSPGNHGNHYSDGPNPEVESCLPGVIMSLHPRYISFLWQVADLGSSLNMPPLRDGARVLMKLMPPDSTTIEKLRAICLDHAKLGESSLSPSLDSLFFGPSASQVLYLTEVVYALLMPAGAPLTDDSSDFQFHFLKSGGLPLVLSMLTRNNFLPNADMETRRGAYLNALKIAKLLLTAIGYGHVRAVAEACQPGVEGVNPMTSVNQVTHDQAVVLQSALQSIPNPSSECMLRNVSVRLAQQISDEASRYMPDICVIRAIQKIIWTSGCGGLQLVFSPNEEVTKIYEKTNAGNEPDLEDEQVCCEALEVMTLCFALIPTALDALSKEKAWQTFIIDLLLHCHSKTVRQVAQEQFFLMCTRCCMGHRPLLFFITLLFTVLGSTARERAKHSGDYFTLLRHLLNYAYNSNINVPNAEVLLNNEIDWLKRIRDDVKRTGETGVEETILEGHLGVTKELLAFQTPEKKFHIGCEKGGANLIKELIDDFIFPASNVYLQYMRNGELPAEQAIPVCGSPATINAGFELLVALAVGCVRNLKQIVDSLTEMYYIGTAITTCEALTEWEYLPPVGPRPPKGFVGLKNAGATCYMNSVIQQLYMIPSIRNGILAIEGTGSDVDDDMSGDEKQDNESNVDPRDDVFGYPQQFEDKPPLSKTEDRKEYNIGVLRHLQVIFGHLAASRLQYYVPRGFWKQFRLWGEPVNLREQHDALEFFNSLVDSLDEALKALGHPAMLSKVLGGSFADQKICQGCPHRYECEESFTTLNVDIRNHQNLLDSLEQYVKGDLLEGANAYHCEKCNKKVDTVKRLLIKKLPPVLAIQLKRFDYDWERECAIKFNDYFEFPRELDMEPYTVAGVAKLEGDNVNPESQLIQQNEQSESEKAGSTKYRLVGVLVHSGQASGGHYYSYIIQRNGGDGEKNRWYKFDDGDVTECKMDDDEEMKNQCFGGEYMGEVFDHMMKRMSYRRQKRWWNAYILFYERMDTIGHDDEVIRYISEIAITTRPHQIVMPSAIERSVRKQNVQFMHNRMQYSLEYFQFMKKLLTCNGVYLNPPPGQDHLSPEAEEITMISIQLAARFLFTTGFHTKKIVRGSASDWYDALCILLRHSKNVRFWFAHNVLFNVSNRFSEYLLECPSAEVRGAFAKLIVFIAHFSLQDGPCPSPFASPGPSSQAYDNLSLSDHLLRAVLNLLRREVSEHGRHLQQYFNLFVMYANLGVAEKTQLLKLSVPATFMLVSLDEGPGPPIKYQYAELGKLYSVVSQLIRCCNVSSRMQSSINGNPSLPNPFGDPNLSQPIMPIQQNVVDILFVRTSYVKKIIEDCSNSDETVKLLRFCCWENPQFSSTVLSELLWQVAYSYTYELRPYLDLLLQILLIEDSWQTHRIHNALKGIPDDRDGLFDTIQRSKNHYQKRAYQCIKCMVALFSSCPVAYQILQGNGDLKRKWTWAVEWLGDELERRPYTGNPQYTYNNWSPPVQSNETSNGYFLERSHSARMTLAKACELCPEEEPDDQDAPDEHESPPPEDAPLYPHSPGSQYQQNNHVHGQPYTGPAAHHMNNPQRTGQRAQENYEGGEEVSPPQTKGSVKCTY

Biological target: tau in the hippocampus of P301S mice (not stated (MAPT P301S transgene or endogenous mouse tau)) (UniProt P10636)
Test: co-IP; hippocampal lysate of P301S mice; 2 mg protein with 4 ug primary antibody overnight at 4 °C, Protein A + G agarose 4 h, three washes, Western blot

USP9X (ubiquitin specific peptidase 9, X-linked), endogenous in mouse hippocampus (from UniProt P70398 1-2559) (enzyme)
binding: binds
